Measured values as given in patent US20240228568A1.
Results are given in words; binding and its absence hold for the method and conditions named. Some entries that bind do so weakly or less than the wild type.

Protein sequences, listed by entry. Tags and fused reporters are not part of them. Residues count along the entry.
UniProt Q13261, residues 31-205: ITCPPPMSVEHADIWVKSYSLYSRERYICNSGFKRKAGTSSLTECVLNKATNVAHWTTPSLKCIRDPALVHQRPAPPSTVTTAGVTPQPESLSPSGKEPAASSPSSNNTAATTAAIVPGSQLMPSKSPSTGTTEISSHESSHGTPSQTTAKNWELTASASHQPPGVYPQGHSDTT

Molecular target: alpha subunit of the IL-15 receptor (IL-15Rα) (UniProt Q13261)
Experiment: ELISA-type test, IL-15Rα immobilized on the plate

With KVTAMKCFLL [Peptide 1] the binding was “binds”.
